# Assay results published in PubChem BioAssay AID1347423 (Functional Genomics Laboratory (NCATS/FGL), 2020).
# Screen size: about 52,000 sequences; about 210 (0.4%) were called active.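 How the source made its calls: active means gene whose silencing raises cell survival under the drug, median off-target-corrected z-score across its silencing RNAs 2 or more; inactive means the rest.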 This is one part of the list.
# Experiment: Resistance to Poly (ADP-Ribose) Polymerase inhibitor: Gene Identification via Genome-wide siRNA Screen
# Details: mouse BRCA2 R2336H ES cells, olaparib, CellTiter-Glo viability; hits give high values
# Method in brief: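 Genome-wide siRNA screen (3 siRNAs/gene, 20 nM) in mouse ES cells carrying hypomorphic BRCA2 R2336H; olaparib 500 nM added 48 h post-transfection, CellTiter-Glo viability 72 h later. Normalized to plate-median negative control; MAD z-scores, gene median, seed-adjusted.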
row,Sequence,z-score
1,GGAGUGAAUGAAUGAAUGATT against Vsx1,inactive: 0.17
2,GGCUGAGUUUGGUAAGAGATT against Scly,inactive: 0.2
3,GCAGCUCACUUUGGAUGACTT against Irf4,inactive: 0.0967
4,CCUUUGAUUCACAAUGGUUTT against Smad4,inactive: 0.00533
5,GUCUUAAAAUUCCUGCUCCTT against Mrgprg,inactive: -0.574
6,CCCUGAAUAUAUGAAGAGCTT against Rhbdl,inactive: 0.564
7,GCUAGAUUUCUACUGUGUCTT against 4930504E06Rik,inactive: -0.801
8,GGAUGCUUGGCUCAAUUACTT against Olfr992,inactive: 0.0618
9,CCUCAACAAAUCAUCCUAATT against Rgs18,inactive: 1.3
10,CCUAUCCAGAUGUCAUUAATT against Hoxa11,inactive: -1.27
11,GGCCUUUCUAUAUAGAGCCTT against 9130023D20Rik,inactive: -0.611
12,CGAACUUUUCAGCAGAUACTT against 2610304G08Rik,inactive: -0.533
13,GCGCAGUUGCAAACCACACTT against Clec4g,inactive: -0.579
14,GCAAGGUGUGGAAUGACCUTT against Snx8,inactive: 0.233
15,GCGACAUCUGGAAAAAUACTT against Atp2a1,inactive: -1.47
16,CCGCGUCUUGCUAUGGAAGTT against BC048937,inactive: 1.59
17,GCAAAUUAGGUUGUGAAUGTT against Gab1,inactive: 0.188
18,GGUGAUUCACAUACUUUAUTT against Vps54,inactive: -1.18
19,GGGACAAUGGCAAAAUAAATT against Serpinb11,inactive: 0.644
20,GCCUGAUGGGCACUUUGAATT against Socs6,inactive: -0.588
21,CCUUCGUAAUGACUGAGGATT against 4930543L23Rik,inactive: -0.4
22,GGGACUUCAACAGAUAUGUTT against Jmjd2b,inactive: 1.85
23,GCGCACAAGCCUUACUAAATT against LOC434377,inactive: 1.45
24,GGACUUGAACAACUUACAATT against Plcb1,inactive: -0.00133
25,CGGUAUAUCCAAAUUUCUCTT against Art2a,inactive: 0.96
26,GCACCAUCGCUUUGUUAUUTT against Hdlbp,inactive: -0.562

row,Sequence,z-score
1,GGAAGUUUGCUCCAGCCUUTT against Tmem33,inactive: -0.951
2,GCCUGACCGACUCAACUACTT against Dbh,inactive: -0.0788
3,GGAUCAGUGCCUUUGGCUATT against Rhoc,inactive: -0.439
4,GGACAAUGUGGAGAAGGAATT against BC048403,inactive: -2.38
5,CCAUAUCUCAUGAGGAAGGTT against Olfr1368,inactive: -0.564
6,GCAGAGUGUUUAAGUUUAUTT against Cftr,inactive: 0.883
7,GGGCAGCUGCUAUUUAUUUTT against Fosl1,inactive: 0.126
8,GGCCUUGGAACAGAAUCCGTT against Sugt1,inactive: 0.673
9,GCGGGAAAUAGCUGACUUATT against Rabep1,inactive: -1.09
10,GCUCUCAUCGUCCCUGAAUTT against Cln8,inactive: 0.142
11,GGCUGCUGUAACGAUGAAGTT against Vegfa,inactive: -1.75
12,GGCUGAGACCUUUUGGUUGTT against AI413631,inactive: -0.0343
13,AUCAAGGUUAUGCAUAACUTT against LOC382686,inactive: 1.22
14,CGUUAUCUCAGUGGAUACUTT against 5730444A13Rik,inactive: -2.61
15,GGAUGAAGAGAAAAAUUGATT against Slc20a1,active: 2.96
16,CCGUGCCAAACUUCUUACUTT against 2610528J11Rik,inactive: 1.55
17,GCUAAAAAGCCGAAUUCUATT against a,inactive: 0.522
18,GCAUUUCUACUGGAUUGUGTT against Luc7l2,inactive: -0.369
19,GGUGCAUUCACGUAUUUACTT against Olfr144,inactive: -2.41
20,GGAACUCACGCACAUAUUUTT against Net1,inactive: 0.027
21,CCCGAACCUGUUGUCUGAATT against Ttc8,inactive: -1.68
22,GGCUCUUAUCAAGAAAUCUTT against Rai12,inactive: 1.84
23,GGAAAGAAGAAGAGGUGAGTT against Pecr,inactive: 0.31
24,GGAGUCGUUUUCUGUUACUTT against Gemin5,inactive: -1.69
25,CGGAAUGCCAAAGAUGUGGTT against Sult1d1,inactive: -0.254
26,GGCAUAAACCACUUCCAGCTT against Dedd2,inactive: 0.997

# Another view of some results above.
row	Sequence	z-score
12	GGCUGAGACCUUUUGGUUGTT against AI413631	inactive: -0.0343
13	AUCAAGGUUAUGCAUAACUTT against LOC382686	inactive: 1.22
14	CGUUAUCUCAGUGGAUACUTT against 5730444A13Rik	inactive: -2.61
15	GGAUGAAGAGAAAAAUUGATT against Slc20a1	active: 2.96

# (listing goes on)

row,Sequence,z-score
1,CCAAAGUUAUUGCAUGCACTT against Kcna4,inactive: -1.09
2,GUAAAGGUCUUGAUAGCCUTT against Tcl1b2,inactive: 0.64
3,AGCUGACUGUAAAAAAACCTT against 1810014F10Rik,inactive: -0.342
4,GGACCUAUGCGUUUCUGGUTT against 6330406I15Rik,inactive: 0.577
5,GGACUCAGCAUCGUGAUACTT against Krtap15,inactive: 0.424
6,GGCACAAAAUGACUCCUAUTT against C330046G03Rik,inactive: -0.514
7,GCGGUUUGUGUUGAUCUUGTT against Olfr768,inactive: 1.35
8,GGAACCAGAGGACAAAGACTT against 4921513E08Rik,inactive: 0.0214
9,GCACUUACGCAGGCAUUUUTT against Apoc2,inactive: 0.0219
10,GGGAUUUUUUGUUGCCAUCTT against Pthr1,inactive: -0.139
11,GGUCUUAUCUUGAUUGAGGTT against E130016I23Rik,inactive: 1.53
12,CCGUACUCUACCUCCACAATT against Flrt2,inactive: -1
13,GGCUAUGAGAAAUACACUCTT against Zfp35,inactive: 0.444
14,GGGUUCAUUUUUGGCUUUCTT against Serpina3m,inactive: 0.0224
15,GGAAGCUUCUUCAGUACAATT against Rai14,inactive: -0.0646
16,GGUCAUCUGUGUUUACACGTT against AI837181,inactive: -0.906
17,GGUCUUCUUUGUGUUCGCUTT against Olfr283,inactive: 0.468
18,GACACUGAACAACGACAUUTT against Prss3,inactive: 0.522
19,AGUUAGCCUUGAGGAGAAUTT against Olfr1512,inactive: -1.32
20,CCAAGUUUUAGCACCUAAATT against Mitc1,inactive: 1.31
21,GGGAAAGGACAUUACCCAGTT against 4933409N07Rik,inactive: -1.27
22,GGUCCUGAAGAUACAUAUUTT against 4732460C16Rik,inactive: -1.51
23,GGAUUCUUUACAGAAUCAATT against 1110064P04Rik,inactive: 1.85
24,GGAGUAUUUCUACACCAGCTT against Ccl5,inactive: 0.44
25,GGAAAUAGAAACCUCAAGUTT against Sipa1l1,inactive: -0.937
26,CGCAAACAGGAUUGUUCUATT against Lgals3,inactive: -1.61

# Some values from the list:
# Under z-score, CCUAUCCAGAUGUCAUUAATT against Hoxa11 has the entry inactive: -1.27
# Under z-score, GGGUUCAUUUUUGGCUUUCTT against Serpina3m has the entry inactive: 0.0224
# Under z-score, GCGCAGUUGCAAACCACACTT against Clec4g has the entry inactive: -0.579

# The listing continues.

row,Sequence,z-score
1,GGACCCAAGCCUAAAACCUTT against Cbx8,inactive: 0.0315
2,CCUGCGUAGAAAGAUGAUGTT against Tekt2,inactive: 0.168
3,CGGAUCUUGUCAAUAACCATT against Angptl1,inactive: -0.131
4,GCUCCUUAAACAGUAAUCATT against Adipor2,inactive: 0.25
5,GGUUCUGUACGCCACUUGCTT against Lass1,inactive: 0.18
6,GGCCCAACUGGAACAGUAUTT against C030019I05Rik,inactive: -1.65
7,CCUCUUCAGAAGCUCUCCUTT against Olfr1320,inactive: 1.27
8,UGUAUUUUGUCAAUGUGGCTT against Olfr104,inactive: -1.49
9,GCAUUUGAUACCUUCACUGTT against Krtap16-5,inactive: 0.973
10,GCAAGAAUCGAUAUGAGAGTT against Lect1,inactive: -0.886
11,GCCGAUAUGAGGAUAGCGATT against Cckar,inactive: -1.52
12,GGCCUUCACUACGAGGGAATT against Pfkl,inactive: 0.0423
13,CGAAAUCAAGUUUACACUCTT against Mgea6,inactive: 1.18
14,CGACAAACUCACCUUGUCCTT against 1700094E07Rik,inactive: 0.399
15,GCAUGAAGGCAAUAUUUCATT against BC021442,inactive: -0.141
16,GGAUGAAAUCAAAAUGGAUTT against Zfp622,inactive: 1.45
17,GGAUGCAGCUAACAAUUACTT against Tuba8,inactive: 0.0077
18,GCCGAUUUUAUCUUUGUCATT against Dpysl5,inactive: -0.269
19,GGAGUAUAAAAAGUUCAGATT against Ell3,inactive: 0.15
20,GCCUUUAUCUACCAUUACUTT against Zfp289,inactive: -0.401
21,GCUGCCUUUAAUGUGGCAATT against Tcl1,inactive: 0.101
22,GGAAGACCUAAACAACGGCTT against Dusp10,inactive: -0.149
23,AAUCCAAGGGCCGGCCUCATT against LOC328779,inactive: 0.26
24,GCUCUCACAGUUGCAUUCGTT against C330018J07Rik,inactive: -0.366
25,GGAGAAAAAGAGAUAAGGUTT against 2900026H06Rik,inactive: -0.997
26,GGCUAACAUAUGAAUCACUTT against Sec5l1,inactive: -1.62
